Molecules are shown by their SMILES.

Consider 4 molecules from publication PMC9051119 (RSC Advances, 2020).

For series [1] the following is noted: single excipient, result in words.
Series [2] is described as follows: Equilibrium solubility in model lipid-based formulations. As to conditions: value of the main text; for Solubility in MC-SEDDS: medium chain SEDDS.

In the case of `C(=C\c1ccccc1)/CN1CCN(C(c2ccccc2)c2ccccc2)CC1` [Compound 1, cinnarizine], the “Equilibrium solubility in glyceryl tricaprylate/caprate” value in series [1] is “high solubility”.

Turning to `C(=C\c1ccccc1)/CN1CCN(C(c2ccccc2)c2ccccc2)CC1` [Compound 1a, cinnarizine], in series [1], the “Equilibrium solubility in glyceryl tricaprylate/caprate” value is listed as “practically insoluble”.

As to `C(=C\c1ccccc1)/CN1CCN(C(c2ccccc2)c2ccccc2)CC1` [Compound 1g, cinnarizine], in series [2], the “Solubility in MC-SEDDS” value is 99 mg/g.

Turning to `C(=C\c1ccccc1)/CN1CCN(C(c2ccccc2)c2ccccc2)CC1` [Compound 1k, cinnarizine], the “Solubility in LC-SEDDS” value in series [2] (long chain SEDDS) turned out to be 249 mg/g. Further, the “Solubility in MC-SEDDS” value in series [2] amounted to 261 mg/g.
